Test results: patent US20160032401A1, “Glycine, Mitochondrial One-Carbon Metabolism, and Cancer” (THE GENERAL HOSPITAL CORPORATION, priority 2013, published 2016)
Positions count from the first letter of the chain named. At least one compound was matched to its structure with a doubt left.

Legend:
Type in all cases: biochemical
[1] = target: T1, recombinant MTHFD2 protein (human, wild type) (Homo sapiens, UniProt P13995); assay: NAD-dependent methylenetetrahydrofolate dehydrogenase/cyclohydrolase activity assay, 384 well, no reducing agents
T1 construct: 12 amino acids were removed from the unstructured C-terminus of the protein, and a 6-histidine tag added to facilitate purification; 6-histidine tag (C); made in house; host or cells: E. coli One Shot BL21 Star (DE3), pET-30a(+)
T1 sequence (P13995 with tags, fused parts or gaps): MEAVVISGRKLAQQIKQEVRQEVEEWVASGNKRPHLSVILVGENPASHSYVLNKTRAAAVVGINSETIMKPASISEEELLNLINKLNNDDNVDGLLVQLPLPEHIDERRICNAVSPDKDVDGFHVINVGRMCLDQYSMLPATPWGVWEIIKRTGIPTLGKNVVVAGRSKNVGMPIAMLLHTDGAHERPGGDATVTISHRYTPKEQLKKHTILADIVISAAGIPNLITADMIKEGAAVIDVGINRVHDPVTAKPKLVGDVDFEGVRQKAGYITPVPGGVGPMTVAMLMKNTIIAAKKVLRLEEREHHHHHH
Procedure: (§1) The NAD-dependent methylenetetrahydrofolate dehydrogenase/cyclohydrolase activity assay employed in this microtiter well based screen is based on previously published enzymatic assays, with modifications as listed below. The assay was initially reported by Scrimgeour and Huennekens, Biochem. Biophys. Res. Commun. 1960, 2:230-233 and subsequently by Mejia and MacKenzie, The Journal of biological chemistry. 1985; 260:14616-14620). The assay was performed as described with slight modifications (reported assay concentrations in the Mejia et al. assay are provided in brackets below). The modified assay utilized 50 ng of recombinant MTHFD2 protein produced as described in Example 11 per well in 384 well format. In addition, the present assay utilized 30 […], at pH 7.5 (7.3), with 150 uM formaldehyde (2.5 mM), 150 uM tetrahydrofolate (250 uM) and 6 mM MgCl (5 mM). No 2-mercaptoethanol or reducing agents were used in the present assay, which is crucial for detection of cysteine modifying compounds as potential enzyme inhibitors. The assay employed for high-throughput screening for chemical inhibitors used the final endpoint measure of formation of 5,10-methenyltetrahydrofolate by spectrophotometric absorbance at 340 nm.
The assay described in Example 12 was used to screen a library of about 5,100 small molecule agents in the Prestwick chemical library, Known Bioactives Library and Library of Pharmacologically Active Compounds, in biological duplicate. […] Several of the high scoring inhibitors are known cysteine modifiers that could in principle inhibit enzyme activity by modification of cysteine residues.
Three mutant MTHFD2 constructs were generated with Agilent QuikChange Lightening, with cysteine to serine mutations at C145, C166 or both C145/C166. These mutants were retested with three of the compounds identified in the secondary screen (6-hydroxy-DL-DOPA, Celastrol, and Ebselen). […]

MTHFD2 C145S mutant = target: T2, MTHFD2 C145S mutant (Homo sapiens, UniProt P13995, C145S); assay: Same activity assay on MTHFD2 C145 cysteine to serine mutant
T2 construct: 12 amino acids were removed from the unstructured C-terminus of the protein, and a 6-histidine tag added to facilitate purification; 6-histidine tag (C); made in house
T2 sequence (P13995 with tags, fused parts or gaps C145S): T1 sequence (P13995 with tags, fused parts or gaps) with C111S
Procedure: as §1, with “nm. […]” for “nm.”

MTHFD2 C166S mutant = target: T3, MTHFD2 C166S mutant (Homo sapiens, UniProt P13995, C166S); assay: Same activity assay on MTHFD2 C166 cysteine to serine mutant
T3 construct: 12 amino acids were removed from the unstructured C-terminus of the protein, and a 6-histidine tag added to facilitate purification; 6-histidine tag (C); made in house
T3 sequence (P13995 with tags, fused parts or gaps C166S): T1 sequence (P13995 with tags, fused parts or gaps) with C132S
Procedure: as §1, with “nm. […]” for “nm.”

[2] = target: T4, MTHFD2 C145S/C166S mutant (Homo sapiens, UniProt P13995, C145S/C166S); assay: Same activity assay on MTHFD2 C145/C166 double mutant
T4 construct: 12 amino acids were removed from the unstructured C-terminus of the protein, and a 6-histidine tag added to facilitate purification; 6-histidine tag (C); made in house
T4 sequence (P13995 with tags, fused parts or gaps C145S/C166S): T1 sequence (P13995 with tags, fused parts or gaps) with C111S, C132S
Procedure: as §1, with “nm. […]” for “nm.”

With O=c1c2ccccc2[se]n1-c1ccccc1 [ebselen] the “inhibition of wild type MTHFD2 with addition of the reducing agent DTT” value ([1]; plus DTT) was “resistant”, the “inhibition of wild type MTHFD2” value ([1]; retest with mutants, FIGS. 9A-C) was “inhibited” and the “inhibition of MTHFD2 enzyme in high throughput screen” value ([1]; screen of about 5,100 small molecules, biological duplicate, no reducing agents) was “inhibit the enzyme”. The “inhibition of C145 mutant MTHFD2” value (MTHFD2 C145S mutant) was “resistant to inhibition”, the “inhibition of C166 mutant MTHFD2” value (MTHFD2 C166S mutant) was “inhibited” and the “inhibition of C145/C166 double mutant MTHFD2” value [2] was “resistant”.
